Results reported in PMC11675580, “Supersaturated Gel Formulation (SGF) of Atorvastatin at a Maximum Dose of 80 mg with Enhanced Solubility, Dissolution, and Physical Stability” (Gels, 2024).

Test: Dissolution test (paddle method)
Type: physicochemical
Experimental: The dissolution test was performed using a dissolution tester (708-DS Agilent Technologies Inc., Santa Clara, CA, USA) at 50 rpm and 37 ± 0.5 °C using 900 mL of pH 1.2, pH 4.0, and pH 6.8 buffer solutions and water. The test was performed according to the paddle method using the dissolution medium. […] These samples were cooled down at room temperature for 24 h. […] [14, 15]. The samples were aliquoted at 5 mL using a syringe at predetermined time intervals (5, 10, 15, 30, 45, 60, 90, and 120 min).

Structure (SMILES): CC(C)c1c(C(=O)Nc2ccccc2)c(-c2ccccc2)c(-c2ccc(F)cc2)n1CC[C@@H](O)C[C@@H](O)CC(=O)O [ATR, Atorvastatin calcium trihydrate]
- Dissolution rate of ATR (pH 1.2, ATR only (Figure 9a), until 120 min / final): less than 10%
- Chemical stability in dissolution medium (pH 1.2, degradation to Imp-A1, Imp-H, Imp-J): unstable
- Chemical stability in dissolution media (pH 4.0 and pH 6.8 media, and water): chemically stable
